Laboratory results: article doi:10.1101/2020.09.30.318253
No constants are given. Whether binding was seen depends on the method and setting. In cells and extracts the contact can be indirect. Here binding means that the protein was enriched with, or labelled near, the bait; the list need not be complete. For some of these results: No binding means not detected with the bait. Tags and fused reporters may be left off the sequences shown.

The chains behind the UniProt entries cited, without tags or fusion partners.
UniProt Q96524: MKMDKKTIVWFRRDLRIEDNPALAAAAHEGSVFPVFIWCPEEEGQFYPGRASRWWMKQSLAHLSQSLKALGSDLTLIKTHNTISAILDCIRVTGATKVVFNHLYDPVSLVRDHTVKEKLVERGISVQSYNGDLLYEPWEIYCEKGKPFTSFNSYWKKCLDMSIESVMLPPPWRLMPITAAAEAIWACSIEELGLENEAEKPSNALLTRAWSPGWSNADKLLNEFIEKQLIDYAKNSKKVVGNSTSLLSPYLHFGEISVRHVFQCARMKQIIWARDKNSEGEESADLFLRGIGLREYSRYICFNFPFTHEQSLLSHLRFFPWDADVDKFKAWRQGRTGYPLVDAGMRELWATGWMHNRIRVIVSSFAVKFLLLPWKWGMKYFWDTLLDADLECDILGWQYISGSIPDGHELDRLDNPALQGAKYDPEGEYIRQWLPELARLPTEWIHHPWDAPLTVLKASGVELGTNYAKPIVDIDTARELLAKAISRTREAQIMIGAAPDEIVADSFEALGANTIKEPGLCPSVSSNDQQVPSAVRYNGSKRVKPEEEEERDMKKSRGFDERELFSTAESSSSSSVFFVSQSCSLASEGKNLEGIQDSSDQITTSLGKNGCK
UniProt Q43125: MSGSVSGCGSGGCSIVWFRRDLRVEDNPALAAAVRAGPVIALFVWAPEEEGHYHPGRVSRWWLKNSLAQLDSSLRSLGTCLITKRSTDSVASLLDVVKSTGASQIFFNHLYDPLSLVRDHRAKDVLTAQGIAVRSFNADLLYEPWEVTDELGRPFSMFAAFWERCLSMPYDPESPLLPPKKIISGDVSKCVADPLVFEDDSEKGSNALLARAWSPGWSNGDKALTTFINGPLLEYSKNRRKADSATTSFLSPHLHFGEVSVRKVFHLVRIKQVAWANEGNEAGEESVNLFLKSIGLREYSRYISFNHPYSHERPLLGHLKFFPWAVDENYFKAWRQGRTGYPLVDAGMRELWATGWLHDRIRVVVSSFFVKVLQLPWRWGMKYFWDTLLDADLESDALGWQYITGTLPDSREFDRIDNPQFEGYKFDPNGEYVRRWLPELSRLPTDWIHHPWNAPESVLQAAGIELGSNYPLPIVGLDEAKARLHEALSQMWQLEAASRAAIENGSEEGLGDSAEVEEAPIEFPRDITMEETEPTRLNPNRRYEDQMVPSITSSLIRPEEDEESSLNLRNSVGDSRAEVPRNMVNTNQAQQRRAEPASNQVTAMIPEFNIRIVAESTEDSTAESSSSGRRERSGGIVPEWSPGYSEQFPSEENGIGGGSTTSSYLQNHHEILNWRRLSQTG

B1: CSN7 (signalosome subunit 7) (protein, UniProt Q94JU3 1-260)
chain: MDIEQKQAEIIDQLVKRASTCKSEALGPLIIEATSHPSLFAFSEILALPNVAQLEGTTDSVYLDLLRLFAHGTWGDYKCNATRLPHLSPDQILKLKQLTVLTLAESNKVLPYDTLMVELDVSNVRELEDFLINECMYAGIVRGKLDQLKRCFEVPFAAGRDLRPGQLGNMLHTLSNWLNTSENLLISIQDKIKWADNMSEMDKKHRKEAEEGVEEVKKSLSMKGDVDIRGNKEMFGEPSGVMDYEEDGIRPKRRRHPVTR
B2: CSN8 (signalosome subunit 8) (protein, UniProt P43255 1-197)
chain: MDLSPVKEALAAKSFDKIADICDTLMLQVASEGIEYHDDWPYAIHLLGYFYVDDCDSARFLWKRIPTAIKERKPEVVAAWGIGQKLWTHDYAGVYEAIRGYDWSQEAKDMVAAFSDLYTKRMFQLLLSAYSTITIHDLALFLGMTEDDATTYVVENGWTVDAASQMASVKKQAVKREQKVDSSKLQRLTEYVFHLEH
B3: SUPPRESSOR OF PHYA-105 1 (SPA1) (protein, UniProt Q9SYX2 1-1029)
chain: MPVMERVAEETVATNNIQLKARVDDVPCNKLDARHNDMVIQSETANSDCPGSSAHRNVDLTKPPPPEEAAGAKLSVEELTLGNYRIVQGSNNTNVDSPRAGKFEHLYRLARGSAFRAGDGDLDSQPRDMDQMLSRIRQQLAGAPSERQNLKPFMSRRSDQNLEAFSERLRAAGENSIMNAPALISEGVQMKTPVSSSNFSQLLLKRAMKGKGVVGKNQETPPEFVSDQDLGSKEKKLDISKSPTPHDVLPLKSSPKGNGMVSHGDGNHSKSSIGISLREFLRSSYAKREKRHGLCLFRQLVELVDSAHSKRLFLLDLRPSLFTLVPSKKLRYIGNFGKNDLESDVDEDLNRRRPVVEESSSGGRDSKKRKMDLHLNSPGNQLQATSTGRPFKRKSPVIDLNMVDARNPDSCELQQQDYIKNLSVSSVSRKQSMSTWLEEQWYTCPEEINGEDIGEKSNIYALGVLLFELLCHCESGEMHAAMMADLRHRILPPTFLSKYPKEAGFCLWLLHPEPSSRPSARDILKSELICEDDSVKSTAAAEEISELLLHFLSSLEVQKKKKASKLLQDIQTLEDDIKEAERRYSSNVSLVRSHGAIEKRVQSSPLDEHCTTSSALFVPTANTDRLMSNIRQLEDAYFFMRSQINLSSSAATARSDKTLKDRDRCSENQNENQDMSTKGKSSDQLEVFFEGLCKFARYSKFETCGTIRSGDLLNSASVVCSLSFDPDEEHIAAAGISKKIKIFDFNAFMNESVGVHYPLVEMVNKSKLSCVCWNSYIKNYLASTDYDGVVQIWDAGTGQGFSQYTEHQKRAWSVDFSPSDPTKFVSGSDDCSVKLWSINEKRSLGTIWSPANVCCVQFSSYSNHLLAFGSADYKVYCYDLRYVKTPWCTLAGHEKAVSYVKFMDSETIVSASTDNSLKLWNLNKTNSSGLSPGACSLTYKGHTNQKNFVGLSVLDGYIACGSETNEVYSYYKSLPMPMTSYKFGSVDPISGNEYFDDNGQFVSSVCWRKKSNMLVAANSTGNMKLLKLV
B4: SPA2 (protein, UniProt Q9T014 1-1036)
chain: MMDEGSVGDVSRIDEADVAHLQFKNSEQSFKPENIEVREVKEVQVQREAGSPDCSYGVIADFLDGKNGGDHVELIGNEPCSSRQNTNDEGDVVEELTVKTCEGSSMAIVGRPSSRARLEMNRSQFLHRFPLDGDLPGSSSMSKKVIDRGTVSILRNAGKMSLPETSNGQLAIIAVNGEANEHLTNVERNPVPVEALSHEGIKTKMLSQSGFSQFFVRKTLKGKGVTFRGPPNNRSKARNMDQQTVASSGSALVIANTSAKISSSIPLAAYDGLPCLPSNTSKPSSCANPSDTHRGCGGEGLSLREWLKSERQEVNKAECMYIFRQIVDHVDCSHSQGVVLCDLRPSSFKIFKENAVKYVVSGSQRESFDSNMNKETLSQLENPLVRRRLGDTSSLSIPAKKQKSSGPSSRQWPMFQRAGGVNIQTENNDGAIQEFHFRSSQPHCSTVACPFTSVSEQLEEKWYASPEELRGDMRSASSNIYSLGILLYELLSQFQCERAREAAMSDIRHRILPPKFLSENPKEAGFCLWLLHPESSCRPSTRDILQSEVVNGIPDLYAEGLSLSIEQEDTESELLQHFLFLSQEKRQKHAGNLMEEIASVEADIEEIVKRRCAIGPPSLEEASSSSPASSVPEMRLIRNINQLESAYFAARIDAHLPEARYRLRPDRDLLRNSDNTVAEVENSETWSSDDRVGAFFDGLCKYARYSKFETRGVLRTSELNNTSNVICSLGFDRDEDYFATAGVSKKIKIYEFNSLFNESVDIHYPAIEMPNRSKLSGVCWNNYIRNYLASSDYDGIVKLWDVTTGQAISHFIEHEKRAWSVDFSEACPTKLASGSDDCSVKLWNINERNCLGTIRNIANVCCVQFSPQSSHLLAFGSSDFRTYCYDLRNLRTPWCILSGHNKAVSYAKFLDNETLVTASTDNTLKLWDLKKTTHGGLSTNACSLTFGGHTNEKNFVGLSTSDGYIACGSETNEVYAYHRSLPMPITSYKFGSIDPISGKEIEEDNNLFVSSVCWRKRSNMVVSASSNGSIKVLQLV
B5: SPA3 (protein, UniProt Q9LJR3 1-845)
chain: MEGSSNSNSRGFNTSGVSDRNTEFLPVERLTTRSKPSSHVDEYVRSLFGSTSTHKSGEDDSLGIDPFVRSLEWGDVSLRQWLDKPERSVDVFECLHVFRQIVEIVNAAHSQGIVVHNVRPSCFVMSSFNHVSFIESASCSDSGSDSLEDGPISQKEIGSSRREEAVSKAIAIEEKGVYNKLLERKIEKLEEEKTQPFPMKHILAMETSWYTSPEEDFGSSSTCASDVYRLGVLLFELFCPVPSREEKSRTMSSLRHRVLPPQILLKCPKEASFCLWLLHPEPTCRPSMSDLLQSEFITEPRDNLEEREAAIELRDRIEEQESLLEFLLLIQQRKQESAYRLQDTVSLLSSDIEQVVKRQLILKKRGSSLSDFSKDDHQYTSGQPLMSFQANEEPSAFLASRKRVRQGILALENGVEVDEESQGSTLLESSRLMRNFKKLESVYFLTRRRQMKAAASGKSLTRHSPLSSENGRGSMIVSEKSSVSNPVAPKAFFNNDSRQGGWIDPFLEGLCRYLSFSQLRVKADLKQGDLLNSSNLVCALAFDREGELFATAGVNKKIKIFECNSIVNDNRDIHYPVVELAGRSKLSSLCWNSYIKSQIASSNFDGVVQIWDVARSQLVTEMKEHKKRVWSIDISSADPTLLASGSDDGTVKLWSINQGVSIGTIKTKANVCCVQFPSDSGRSLAFGSADHKVYYYDLRNPKIPLCTMIGHSKTVSYVKFVDSSTLVSSSTDNTLKLWDLSMSASGINESPLHSFTGHTNLKNFVGLSVSDGYIATGSETNEVFVYHKAFPMPVMSYMFNNTDSMSGLEVDDASQFISSICWRGQSSTLVAANSNGNIKILEMMT
B6: SPA4 (protein, UniProt Q94BM7 1-794)
chain: MKGSSESSSRGLNNTSGVSEFCTDGSKSLSHIDYVRSLLGSHKEANLGGLDDDSIVRALECEDVSLRQWLDNPDRSVDAFECFHVFRQIVEIVNAAHSQGIVVHNVRPSCFVMSSFNNVSFIESASCSDSGSDEDATTKSREIGSSRQEEILSERRSKQQEEVKKQPFPMKQILAMEMSWYTSHEEDNGSLCNCASDIYRLGVLLFELFCPVSSREEKSRTMSSLRHRVLPPQILLNWPKEASFCLWLLHPEPSCRPSMSELLQSEFINEPRENLEEREAAMELRDRIEEQELLLEFLFLIQQRKQEAADKLQDTISLLSSDIDQVVKRQLVLQQKGRDVRSFLASRKRIRQGAETTAAEEENDDNSIDEESKLDDTLESTLLESSRLMRNLKKLESVYFATRYRQIKAATAAEKPLARYYSALSCNGRSSEKSSMSQPSKDPINDSRQGGWIDPFLEGLCKYLSFSKLRVKADLKQGDLLNSSNLVCAIGFDRDGEFFATAGVNKKIKIFECESIIKDGRDIHYPVVELASRSKLSGICWNSYIKSQVASSNFEGVVQVWDVARNQLVTEMKEHEKRVWSIDYSSADPTLLASGSDDGSVKLWSINQGVSIGTIKTKANICCVQFPSETGRSLAFGSADHKVYYYDLRNPKLPLCTMIGHHKTVSYVRFVDSSTLVSSSTDNTLKLWDLSMSISGINETPLHSFMGHTNVKNFVGLSVSDGYIATGSETNEVFVYHKAFPMPVLSYKFKTIDPVSELEVDDASQFISSVCWRGQSSTLVAANSTGNIKILEMV
B7: COP10 (protein, UniProt Q9LJD7 1-182)
chain: MMTPGGSGRLRPLPTAMYAGYSGTASSWVAKTSVSASGKRIQREMAELNIDPPPDCSAGPKGDNLYHWIATIIGPSGTPYEGGIFFLDIIFPSDYPFKPPKLVFKTRIYHCNVDTAGDLSVNILRDSWSPALTITKVLQAIRSIFLKPEPYSPALPVIARLYLTDREKHDEVAKEWTLRFAK

Experiments:
[1] = biological target: T1, GSRhino-TAP-tagged COP1 (Arabidopsis) (UniProt P43254); assay: affinity purification with mass spectrometry
T1 sequence: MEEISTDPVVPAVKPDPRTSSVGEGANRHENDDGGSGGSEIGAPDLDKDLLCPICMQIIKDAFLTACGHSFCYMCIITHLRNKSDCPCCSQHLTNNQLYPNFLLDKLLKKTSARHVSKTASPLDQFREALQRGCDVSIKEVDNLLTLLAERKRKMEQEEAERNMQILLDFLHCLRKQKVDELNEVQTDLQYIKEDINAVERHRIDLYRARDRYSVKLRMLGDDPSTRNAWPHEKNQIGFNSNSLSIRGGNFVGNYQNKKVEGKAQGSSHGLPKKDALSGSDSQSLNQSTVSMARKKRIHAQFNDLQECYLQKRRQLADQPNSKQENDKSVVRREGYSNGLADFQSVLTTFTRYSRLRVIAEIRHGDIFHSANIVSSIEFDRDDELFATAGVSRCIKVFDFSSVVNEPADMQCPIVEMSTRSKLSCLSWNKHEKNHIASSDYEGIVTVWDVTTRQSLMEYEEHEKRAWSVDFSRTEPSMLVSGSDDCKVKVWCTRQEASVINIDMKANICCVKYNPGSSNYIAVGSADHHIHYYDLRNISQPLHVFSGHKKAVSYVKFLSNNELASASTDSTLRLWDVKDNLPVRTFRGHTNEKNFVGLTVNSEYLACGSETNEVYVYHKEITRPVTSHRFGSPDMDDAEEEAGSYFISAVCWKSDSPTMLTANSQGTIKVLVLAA

[2] = biological target: T2, GSRhino-TAP-tagged DET1 (DE-ETIOLATED1) (Arabidopsis) (UniProt P48732); assay: affinity purification with mass spectrometry
T2 sequence: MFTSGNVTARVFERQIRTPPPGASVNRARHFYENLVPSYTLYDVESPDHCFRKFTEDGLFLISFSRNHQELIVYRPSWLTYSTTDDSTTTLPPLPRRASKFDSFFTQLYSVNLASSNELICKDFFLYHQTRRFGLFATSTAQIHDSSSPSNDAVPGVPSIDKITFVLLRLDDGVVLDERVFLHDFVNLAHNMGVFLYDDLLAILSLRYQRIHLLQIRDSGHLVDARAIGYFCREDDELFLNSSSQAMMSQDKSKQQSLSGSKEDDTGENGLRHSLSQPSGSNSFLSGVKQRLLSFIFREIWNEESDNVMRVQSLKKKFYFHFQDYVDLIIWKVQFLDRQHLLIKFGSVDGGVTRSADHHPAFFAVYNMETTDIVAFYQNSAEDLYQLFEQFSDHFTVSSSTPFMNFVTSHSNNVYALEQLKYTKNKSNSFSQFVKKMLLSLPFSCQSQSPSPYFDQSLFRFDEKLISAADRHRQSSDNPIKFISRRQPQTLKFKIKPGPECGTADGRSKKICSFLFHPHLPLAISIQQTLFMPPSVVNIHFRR

Row | Molecule | binding [1] | binding [2]
1 | CSN6 (signalosome subunit 6) | no binding | binds
2 | DAMAGED DNA BINDING PROTEIN1 (DDB1) | binds | binds
3 | CRY2 (from UniProt Q96524 1-612) | binds | 
4 | CSN5 (signalosome subunit 5) | no binding | binds
5 | CRY1 (from UniProt Q43125 1-681) | binds | 
6 | B1 | no binding | binds
7 | B2 | no binding | binds
8 | B3 | binds | binds
9 | B4 | binds | 
10 | B5 | binds | 
11 | B6 | binds | 
12 | B7 | no binding | binds
